Data from PubChem BioAssay AID493014 (National Center for Advancing Translational Sciences (NCATS), 2011).
The list shows a part of the results. The main result of the screen is listed elsewhere. These columns were measured beside it and carry no call. Compounds called inactive in the main read-out are mostly missing here. Words in brackets tell the shape of the fitted curve; partial curves, single points and poor fits give uncertain potencies.

Assay: qHTS Assay to Find Inhibitors of Chronic Active B-Cell Receptor Signaling
Conditions: ABC-DLBCL IkBa-CBG/CBR reporter, luminescence ratio (green luciferase fused to IkBa over red control in TMD8 lymphoma cells), 4 h
How it was run: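 TMD8 human ABC-DLBCL cells with doxycycline-inducible IκBα–green luciferase fusion and unfused red luciferase, in 0.5% FBS medium; compounds up to 46 uM, 4 h at 37C. Green/red luminescence ratio, filter-overlap corrected, fitted to concentration-response curves.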

[1] = measured here: CBR red luminescence, cell number
[2] = measured here: IkBa-CBG green luminescence

Structure (SMILES)	AC50 [1]	AC50 [2]
CCCCc1cc(=O)oc2c(C)c(OCC(=O)N3CCC(C(N)=O)CC3)ccc12	1.58 µM [rising, full curve, poor fit]	
Cc1cc(C)nc(SCc2ccc(Cl)cc2)n1	22.4 µM [rising, single point]	
COc1ccc(C2C(C#N)=C(N)Oc3c2c(C)nn3-c2ccccc2)cc1Cn1nc(C)c([N+](=O)[O-])c1C (stereo not drawn)	22.4 µM [falling, single point]	
CCn1cc(Cl)c(C(=O)Nc2nccs2)n1	0.794 µM [falling, full curve]	
Cc1cc2nncn2c2ccccc12	0.00517 µM [falling, full curve, poor fit]	
C/C(CC(=O)Nc1ccc(Cl)c(C(F)(F)F)c1)=N\NC(=O)c1cnccn1	5.01 µM [falling, partial curve]	
COc1ccc(NC(=O)c2ccccc2)cc1	13 µM [falling, partial curve]	
CCc1cccc(C)c1NC(=O)C1C2CCC(O2)C1C(=O)O (stereo not drawn)	14.6 µM [rising, single point]	
CCNC(=S)N(Cc1cc2cc(C)ccc2[nH]c1=O)C1CCCC1	14.6 µM [falling, partial curve, poor fit]	
O=C1NC2(CCCC2)N=C1c1ccc(Cl)cc1	3.16 µM [rising, full curve, poor fit]	
Cc1ccc(N/C=C(\C#N)S(=O)(=O)c2ccccc2)cc1	35.5 µM [falling, partial curve, poor fit]	
O=C(CSc1nnc(Nc2ccccc2F)s1)NC1CCCC1	3.26 µM [falling, full curve]	
OCCNc1nc(-c2ccccc2)c2cc(Cl)ccc2n1		0.316 µM [rising, full curve, poor fit]
O=C(O)CCC(=O)Nc1nc2ccccc2s1	5.8 µM [falling, partial curve]	
CSc1ccccc1NC(=O)CN(C)C(=O)Cn1c(=O)oc2ccccc21	16.4 µM [falling, partial curve, poor fit]	
CC(=O)Nc1ccc(S(=O)(=O)NNC(=O)NC23CC4CC(CC(C4)C2)C3)cc1	12.6 µM [falling, partial curve, poor fit]	
C=CCN1CCc2cc(O)c(O)cc2C(c2ccccc2)C1 (stereo not drawn)	29.1 µM [falling, single point]	
Cc1ccsc1C(=O)OCC(=O)N1CCc2ccccc2C1	3.98 µM [falling, partial curve]	
Cc1cc(CN2CCCCC2C(=O)Nc2ccc(Oc3cccnc3)cc2)oc1C (stereo not drawn)	0.501 µM [rising, full curve, poor fit]	
COc1ccc2nc(SCC(=O)/C(C#N)=C(\C)N)[nH]c2c1	22.4 µM [falling, single point]	
CC1(C)CC(c2nc(-c3ccc(Br)cc3)cs2)CCS1 (stereo not drawn)	4.11 µM [rising, partial curve, poor fit]	

Structures shown so far that have a Cl atom (5):
Structure (SMILES)	AC50 [1]	AC50 [2]
Cc1cc(C)nc(SCc2ccc(Cl)cc2)n1	22.4 µM [rising, single point]	
CCn1cc(Cl)c(C(=O)Nc2nccs2)n1	0.794 µM [falling, full curve]	
C/C(CC(=O)Nc1ccc(Cl)c(C(F)(F)F)c1)=N\NC(=O)c1cnccn1	5.01 µM [falling, partial curve]	
O=C1NC2(CCCC2)N=C1c1ccc(Cl)cc1	3.16 µM [rising, full curve, poor fit]	
OCCNc1nc(-c2ccccc2)c2cc(Cl)ccc2n1		0.316 µM [rising, full curve, poor fit]

Next compounds:

Structure (SMILES)	AC50 [1]	AC50 [2]
Cc1cc(C(=O)NNC(=S)NCC2CCCO2)cs1 (stereo not drawn)	0.794 µM [rising, full curve, poor fit]	
CCOc1ccc(NC(=O)c2nsc(Cl)c2Cl)cc1	22.4 µM [falling, single point]	
COc1ccc(/C=C/c2c(-c3ccc(OC)cc3)oc(=O)c3cc(OC)c(OC)cc23)cc1	0.58 µM [rising, partial curve, poor fit]	
CC12CCC(c3c(C(=O)O)nn(-c4ccc(F)cc4)c31)C2(C)C (stereo not drawn)	6.51 µM [rising, single point]	
CCC1(CC)NC(=O)N(CC(=O)Nc2ccc(OCc3ccccc3)cc2)C1=O	29.1 µM [rising, single point]	
CCOC(=S)SCC(=O)Nc1nc(-c2ccccc2)cs1		29.1 µM [falling, single point]
COc1ccccc1N(C)S(=O)(=O)c1ccc(C)c(C(=O)Nc2nccs2)c1	1.84 µM [falling, partial curve, poor fit]	
NS(=O)(=O)c1ccc(NC(=O)COC(=O)c2cn(-c3ccccc3)nc2-c2ccccc2)cc1	15.8 µM [rising, single point]	
O=C(CCl)N(C/C=C/c1ccccc1)c1ccc2c(c1)OCCO2	3.55 µM [falling, full curve, poor fit]	
CCOc1ccccc1CNC(=O)CCc1cn(CC)c2ccccc12	15.8 µM [falling, single point]	
Cc1ccc(NC(=O)CSCC(=O)OCc2cc(=O)oc3cc(O)ccc23)c(C)c1	32.6 µM [rising, partial curve, poor fit]	
Cc1ccc2nc(C3CCCN(C(=S)Nc4cccc(C)c4C)C3)[nH]c2c1 (stereo not drawn)	12.6 µM [falling, single point]	
Cc1ccc(S(=O)(=O)N2CCC(C(=O)NCc3ccccc3CN3CCCC3)CC2)cc1C	14.6 µM [falling, partial curve, poor fit]	
O=C(OCC#CCSc1nnc(-c2cccc3ccccc23)o1)c1ccc(Br)cc1	6.51 µM [rising, single point]	
CN1C(=O)C(C(=O)NC(C)(C)C)C2c3ccccc3OC13CCCCC23 (stereo not drawn)	0.708 µM [falling, full curve, poor fit]	
NC(=O)C1CCN(c2nc(-c3cccs3)cs2)CC1	20.6 µM [rising, single point]	
CCc1ccc2nc(SCC(=O)N3CC(=O)Nc4ccccc43)c(C#N)cc2c1	29.1 µM [rising, single point]	18.4 µM [falling, partial curve, poor fit]
CC(=O)Cc1nsc(Nc2ccc(Cl)cc2)n1	35.5 µM [falling, single point]	
CN(C)S(=O)(=O)c1cccc(-c2cn3ccccc3n2)c1	0.562 µM [falling, partial curve, poor fit]	
Cc1ccc(N(CC(=O)NCc2ccccc2Cl)S(=O)(=O)c2cccs2)cc1	29.1 µM [falling, single point]	
O=C(Nc1ccccc1)Nc1nc(-c2ccc(F)cc2)cs1	32.6 µM [falling, single point]	
